Data as given in PubChem BioAssay AID720505 (Drosophila RNAi Screening Center, 2013)
In all, the deposit lists about 20,000 reagents; below is a random part of those that have a named target and a result. Of all reagents, about 2,100 (10%) are marked active. 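Raw plate signals without normalisation; calls rest on control-based scores that were not deposited; replicate 2 separates called from uncalled poorly.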 Reagents against one gene are numbered here. A plus sign joins genes that one reagent is predicted to hit. Not given: the amount of reagent, the time to read-out.

Test: 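Genes needed for store-operated calcium entry in fly cells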 (primary screen)
System: Drosophila S2R+ cells
Reagent: long dsRNA against Drosophila genes
Conditions: thapsigargin (2 µM) in calcium-free buffer to empty internal stores, then 2 mM calcium added back
Measurement: 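Fluo-4 signal in 384-well plates read on a FLIPR after thapsigargin (2 µM, calcium-free) store depletion and 2 mM calcium add-back; unnormalised mean endpoint per well; screen run twice, selected wells retested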
Direction: calcium signal and retest calcium signal: higher = more calcium entry after store depletion
Rule for the call: 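Knock-downs counted as hits when calcium entry dropped relative to STIM1 positive and Rho1 negative controls present on each plate; roughly 1500 genes called, with reductions of differing size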
Calls: active = called as lowering calcium entry; inactive = not called

With knock-down of CG34426, the screen gave calcium signal, replicate 1 = 103; calcium signal, replicate 2 = 65.8; inactive. CG34166 gave calcium signal, replicate 1 = 127; calcium signal, replicate 2 = 137; retest calcium signal, replicate 1 = 120; retest calcium signal, replicate 2 = 92.5; inactive. Against Rbp9 (RNA-binding protein 9) #1, the values are calcium signal, replicate 1 = 104; calcium signal, replicate 2 = 105; inactive. Against Rbp9 (RNA-binding protein 9) #2 the deposit lists calcium signal, replicate 1 = 102; calcium signal, replicate 2 = 271; inactive. Silencing of poe (purity of essence) resulted in: calcium signal, replicate 1 = 126; calcium signal, replicate 2 = 219; inactive. CG1965 #1 gave calcium signal, replicate 1 = 107; calcium signal, replicate 2 = 78.1; retest calcium signal, replicate 1 = 111; retest calcium signal, replicate 2 = 110; inactive.

Knock-down of CG1965 #2 came out at: calcium signal, replicate 1 = 133; calcium signal, replicate 2 = 91.1; inactive. Knock-down of NPF (neuropeptide F) gave: calcium signal, replicate 1 = 93.4; calcium signal, replicate 2 = 105; inactive. Against Ada3 (transcriptional Adaptor 3) #1, the entry reads calcium signal, replicate 1 = 87.2; calcium signal, replicate 2 = 157; inactive. Against Ada3 (transcriptional Adaptor 3) #2, the entry reads calcium signal, replicate 1 = 106; calcium signal, replicate 2 = 139; inactive. Knock-down of CG42615 gave: calcium signal, replicate 1 = 51; calcium signal, replicate 2 = 57.4; active. With knock-down of Git (G protein-coupled receptor kinase interacting ArfGAP) the results were calcium signal, replicate 1 = 193; calcium signal, replicate 2 = 156; inactive.

With knock-down of slmo + CG34179, the screen gave calcium signal, replicate 1 = 88.9; calcium signal, replicate 2 = 194; inactive. Against CG3386, the entry reads calcium signal, replicate 1 = 91; calcium signal, replicate 2 = 79.8; inactive. CREG (Cellular Repressor of E1A-stimulated Genes) gave calcium signal, replicate 1 = 134; calcium signal, replicate 2 = 195; inactive. RabX4 scored calcium signal, replicate 1 = 114; calcium signal, replicate 2 = 278; inactive. Knock-down of CG9593 came out at: calcium signal, replicate 1 = 168; calcium signal, replicate 2 = 183; inactive. After knock-down of DhpD (Dihydropterin deaminase), the screen gave calcium signal, replicate 1 = 108; calcium signal, replicate 2 = 82.5; inactive.

Mst33A scored calcium signal, replicate 1 = 164; calcium signal, replicate 2 = 175; inactive. For Peritrophin-15a the deposit lists calcium signal, replicate 1 = 144; calcium signal, replicate 2 = 113; inactive. Against CG13557 the deposit lists calcium signal, replicate 1 = 91.9; calcium signal, replicate 2 = 218; inactive. With knock-down of CG14416, the record shows calcium signal, replicate 1 = 127; calcium signal, replicate 2 = 159; inactive. Against Osi23 (Osiris 23), the values are calcium signal, replicate 1 = 149; calcium signal, replicate 2 = 133; inactive. CG11588 gave calcium signal, replicate 1 = 68.3; calcium signal, replicate 2 = 64.5; inactive.

Against Art3 (Arginine methyltransferase 3) the deposit lists calcium signal, replicate 1 = 108; calcium signal, replicate 2 = 137; inactive. After knock-down of Cln7, the screen gave calcium signal, replicate 1 = 108; calcium signal, replicate 2 = 69.9; inactive. With knock-down of CG32277, the screen gave calcium signal, replicate 1 = 91.4; calcium signal, replicate 2 = 108; inactive. Knock-down of Ilp4 (Insulin-like peptide 4) gave: calcium signal, replicate 1 = 80.4; calcium signal, replicate 2 = 73.5; inactive. After knock-down of CG18234, the record shows calcium signal, replicate 1 = 66.8; calcium signal, replicate 2 = 148; inactive. CG7968 gave calcium signal, replicate 1 = 129; calcium signal, replicate 2 = 84.3; inactive.

For MFS12 (Major Facilitator Superfamily Transporter 12), the values are calcium signal, replicate 1 = 214; calcium signal, replicate 2 = 135; inactive. GlcAT-P (Glucuronyltransferase P) #1 gave calcium signal, replicate 1 = 88.3; calcium signal, replicate 2 = 134; inactive. GlcAT-P (Glucuronyltransferase P) #2 showed calcium signal, replicate 1 = 83.5; calcium signal, replicate 2 = 90.2; inactive. Depletion of Prosalpha5 (Proteasome alpha5 subunit) came out at: calcium signal, replicate 1 = 55.9; calcium signal, replicate 2 = 67.7; active. With knock-down of CG4783 the results were calcium signal, replicate 1 = 104; calcium signal, replicate 2 = 161; inactive.
